Experimental findings from the supplement of paper PMC4604168 (melanoma cell lines) are described below.

This is one part of the list. Repeats are few or missing, and single values can be far off.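 Imaging used 1,536-well plates; nuclei positive for cleaved PARP by antibody were divided by total DNA-stained nuclei to yield the apoptosis fraction. Doses for screening kept most cells viable, and cell lines differ markedly in resting and induced cleaved-PARP levels.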

This assay concerns SkMel30. Nature of the assay: cleaved PARP positive nuclei fraction relative to DMSO control; melanoma cells; higher = more apoptosis. The following applies: library dose: low library concentration; 72 h.
Take `Cn1cnc2c(F)c(Nc3ccc(Br)cc3Cl)c(C(=O)NOCCO)cc21` [selumetinib] + COc1ccc(COc2ccc(Cc3cnc(N)nc3N)cc2OC)cc1 [GW2580] (first compound 0.015 µM, partner dose 1 µM): the “cleaved PARP positive nuclei fraction” value amounted to 95.1%. For the compound `NC(=O)c1ccc(N(C(N)=O)c2c(F)cccc2F)nc1-c1ccc(F)cc1F` + O=C(O)c1ccc(-c2c[nH]c3ncc(-c4ccccc4)cc23)cc1C1CCCC1 [GSK650394] (first compound 0.4 µM, partner dose 0.16 µM), the “cleaved PARP positive nuclei fraction” value turned out to be 66%. To `COc1ccc(C2=N[C@@H](c3ccc(Cl)cc3)[C@@H](c3ccc(Cl)cc3)N2C(=O)N2CCNC(=O)C2)c(OC(C)C)c1` [Nutlin-3] + NC(=O)Nc1cc(-c2cccc(F)c2)sc1C(=O)N[C@H]1CCCNC1 [AZD7762] (first compound 0.1 µM, partner dose 0.02 µM) belongs 77.5%; to `CS(=O)(=O)c1ccc(C(=O)Nc2ccc(Cl)c(-c3ccccn3)c2)c(Cl)c1` [vismodegib] + Cc1ccc(NC(=O)c2cccc(N(C)C)c2)cc1NC(=O)c1ccc(O)cc1 [ZM336372] (first compound 1 µM, partner dose 2 µM), 65.9%; to `CCCCCCCCc1ccc(CCC(N)(CO)CO)cc1` [fingolimod] + Cn1cc(/C=C2\C(=O)Nc3cccnc32)c2ccccc21 [GW441756] (first compound 2 µM, partner dose 0.4 µM), 67.8%.

Regarding `NC1(c2ccc(-c3nc4ccn5c(=O)[nH]nc5c4cc3-c3ccccc3)cc2)CCC1` + C=CCn1c(=O)c2cnc(Nc3ccc(N4CCN(C)CC4)cc3)nc2n1-c1cccc(C(C)(C)O)n1 [MK1775] (first compound 0.4 µM, partner dose 0.02 µM), the “cleaved PARP positive nuclei fraction” value was 90.9%.
